Assay results reported in paper PMC5871769.

Key:
[1] = target: BD-NIb (Turnip mosaic virus); experiment: two-hybrid; yeast strain Y2H Gold; prey in pGADT7-DEST (AD), bait in pGBKT7-DEST (BD); growth on SD/-Trp-Leu-His-Ade
[2] = target: NIb (BiFC fusion) (Turnip mosaic virus); experiment: split reporter; BiFC with YN and YC fragments of YFP in agroinfiltrated leaves of H2B-RFP transgenic N. benthamiana; confocal imaging at 48 hpi

Binder | binding [1] | binding [2]
AtATG6 (Y2H, pGAD-AtATG6) (protein, UniProt Q9M367-2 1-386) MRKEEIPDKSRTIPIDPNLPKWVCQNCHHSLTIVGVDSYAGKFFNDPPPSATQGSSIHGANSVLGSTRMDNSFVVLPRHKPPQSQGIPPRPRGASSPQPDATQSGKAMEESFVVVYKSEPVSDSGGSHNLSLEVGQNGPLHSNTSGFNATINVLTRAFDIARTQTQVEQPLCLECMRVLSDKLEKEVEDVTRDVEAYEACVQRLEGETQDVLSEADFLKEKKKIEEEERKLVAAIEETEKQNAEVNHQLKELEFKGNRFNELEDRYWQEFNNFQFQLIAHQEERDAILAKIEVSQAHLELLNKTNVLIDAFPIRNDGEFGTINNFRLGRLPAIKVEWDEINAAWGQACLLLHTMCNYFRPKFQYPYNYLTVLFLILPFLFDSVDCI | binds | –
AtATG6 (BiFC fusion) (protein, UniProt Q9M367-2 1-386) MRKEEIPDKSRTIPIDPNLPKWVCQNCHHSLTIVGVDSYAGKFFNDPPPSATQGSSIHGANSVLGSTRMDNSFVVLPRHKPPQSQGIPPRPRGASSPQPDATQSGKAMEESFVVVYKSEPVSDSGGSHNLSLEVGQNGPLHSNTSGFNATINVLTRAFDIARTQTQVEQPLCLECMRVLSDKLEKEVEDVTRDVEAYEACVQRLEGETQDVLSEADFLKEKKKIEEEERKLVAAIEETEKQNAEVNHQLKELEFKGNRFNELEDRYWQEFNNFQFQLIAHQEERDAILAKIEVSQAHLELLNKTNVLIDAFPIRNDGEFGTINNFRLGRLPAIKVEWDEINAAWGQACLLLHTMCNYFRPKFQYPYNYLTVLFLILPFLFDSVDCI | – | binds

Results are given in words; binding and its absence hold for the method and conditions named. A result given as binding can be weak or reduced; the word gives no strength. For some assays here: Binding seen in cells or lysates may run through a third protein. For some assays here: Where a sequence is shown, tags or fusion partners need not be part of it.
